Test results reported in the supplement of paper PMC7661543.
Differences between knockout arms are mostly noise.

Tested on: MDA-MB-231
Assay: relative cell number vs DMSO control (72 h) (% of DMSO); higher = less growth inhibition (more cells)
Method: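 QMAP-Seq: a pool of 5 breast cancer cell lines (ZR-75-1, SKBR3, HCC-38, MDA-MB-231, BT-20), each carrying 12 doxycycline-inducible Cas9 sgRNA perturbations (11 knockouts plus non-targeting sgNT), was treated with compounds for 72 h at four 10-fold doses (10 nM-10 uM or 1 nM-1 uM range). Barcodes were amplified and sequenced, and cell number was interpolated from 293T spike-in standard curves. The result is expressed as % of the median of DMSO wells. Two biological replicates.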

CCOC(=O)c1ccc(N2NC(=O)C(=Cc3ccc([N+](=O)[O-])o3)C2=O)cc1 [PYR41]
Details	relative cell number
sgRNA knockout: sgATF3, 10 nM	115
sgRNA knockout: sgATF3, 100 nM	114.8
sgRNA knockout: sgATF3, 1000 nM	108
sgRNA knockout: sgATF3, 10000 nM	84.2
sgRNA knockout: sgATF4, 10 nM	120
sgRNA knockout: sgATF4, 100 nM	66.1
sgRNA knockout: sgATF4, 1000 nM	94.5
sgRNA knockout: sgATF4, 10000 nM	105
sgRNA knockout: sgATF6, 10 nM	119
sgRNA knockout: sgATF6, 100 nM	112
sgRNA knockout: sgATF6, 1000 nM	103
sgRNA knockout: sgATF6, 10000 nM	95.9
sgRNA knockout: sgATG7, 10 nM	103
sgRNA knockout: sgATG7, 100 nM	86.9
sgRNA knockout: sgATG7, 1000 nM	95.9
sgRNA knockout: sgATG7, 10000 nM	91.4
sgRNA knockout: sgERN1, 10 nM	115
sgRNA knockout: sgERN1, 100 nM	102
sgRNA knockout: sgERN1, 1000 nM	94
sgRNA knockout: sgERN1, 10000 nM	103
sgRNA knockout: sgHSF1, 10 nM	109
sgRNA knockout: sgHSF1, 100 nM	93
sgRNA knockout: sgHSF1, 1000 nM	109
sgRNA knockout: sgHSF1, 10000 nM	100
sgRNA knockout: sgHSF2, 10 nM	116
sgRNA knockout: sgHSF2, 100 nM	82.6
sgRNA knockout: sgHSF2, 1000 nM	105
sgRNA knockout: sgHSF2, 10000 nM	114
sgRNA knockout: sgKEAP1, 10 nM	110
sgRNA knockout: sgKEAP1, 100 nM	85.6
sgRNA knockout: sgKEAP1, 1000 nM	116
sgRNA knockout: sgKEAP1, 10000 nM	106
sgRNA knockout: sgNFE2L2, 10 nM	100
sgRNA knockout: sgNFE2L2, 100 nM	103
sgRNA knockout: sgNFE2L2, 1000 nM	115
sgRNA knockout: sgNFE2L2, 10000 nM	89.7
sgRNA knockout: sgSLC35F2, 10 nM	122
sgRNA knockout: sgSLC35F2, 100 nM	103
sgRNA knockout: sgSLC35F2, 1000 nM	110
sgRNA knockout: sgSLC35F2, 10000 nM	88.4
sgRNA knockout: sgXBP1, 10 nM	103
sgRNA knockout: sgXBP1, 100 nM	88.8
sgRNA knockout: sgXBP1, 1000 nM	119
sgRNA knockout: sgXBP1, 10000 nM	67.3

C[C@]12CC[C@H](O)CC1=CC[C@@H]1[C@@H]2CC[C@]2(C)C(c3cccnc3)=CC[C@@H]12 [Abiraterone]
Details	relative cell number
sgRNA knockout: sgATF3, 1 nM	151
sgRNA knockout: sgATF3, 10 nM	123
sgRNA knockout: sgATF3, 100 nM	122
sgRNA knockout: sgATF3, 1000 nM	119
sgRNA knockout: sgATF4, 1 nM	109
sgRNA knockout: sgATF4, 10 nM	117
sgRNA knockout: sgATF4, 100 nM	95.2
sgRNA knockout: sgATF4, 1000 nM	127
sgRNA knockout: sgATF6, 1 nM	92.4
sgRNA knockout: sgATF6, 10 nM	81.8
sgRNA knockout: sgATF6, 100 nM	115
sgRNA knockout: sgATF6, 1000 nM	119
sgRNA knockout: sgATG7, 1 nM	106
sgRNA knockout: sgATG7, 10 nM	127
sgRNA knockout: sgATG7, 100 nM	100
sgRNA knockout: sgATG7, 1000 nM	108
sgRNA knockout: sgERN1, 1 nM	112
sgRNA knockout: sgERN1, 10 nM	120
sgRNA knockout: sgERN1, 100 nM	110
sgRNA knockout: sgERN1, 1000 nM	97.7
sgRNA knockout: sgHSF1, 1 nM	100
sgRNA knockout: sgHSF1, 10 nM	111
sgRNA knockout: sgHSF1, 100 nM	99.2
sgRNA knockout: sgHSF1, 1000 nM	103
sgRNA knockout: sgHSF2, 1 nM	98.7
sgRNA knockout: sgHSF2, 10 nM	109
sgRNA knockout: sgHSF2, 100 nM	131
sgRNA knockout: sgHSF2, 1000 nM	104
sgRNA knockout: sgKEAP1, 1 nM	107
sgRNA knockout: sgKEAP1, 10 nM	112
sgRNA knockout: sgKEAP1, 100 nM	105
sgRNA knockout: sgKEAP1, 1000 nM	92.3
sgRNA knockout: sgNFE2L2, 1 nM	102
sgRNA knockout: sgNFE2L2, 10 nM	105
sgRNA knockout: sgNFE2L2, 100 nM	89.99
sgRNA knockout: sgNFE2L2, 1000 nM	122
sgRNA knockout: sgSLC35F2, 1 nM	113
sgRNA knockout: sgSLC35F2, 10 nM	102
sgRNA knockout: sgSLC35F2, 100 nM	104
sgRNA knockout: sgSLC35F2, 1000 nM	113
sgRNA knockout: sgXBP1, 1 nM	110
sgRNA knockout: sgXBP1, 10 nM	103
sgRNA knockout: sgXBP1, 100 nM	123
sgRNA knockout: sgXBP1, 1000 nM	121

Cc1cc(N2CCOCC2)cc2[nH]c(-c3c(NC[C@@H](O)c4cccc(Cl)c4)cc[nH]c3=O)nc12
Details	relative cell number
sgRNA knockout: sgATF3, 10 nM	104
sgRNA knockout: sgATF3, 100 nM	83.13
sgRNA knockout: sgATF3, 1000 nM	87
sgRNA knockout: sgATF3, 10000 nM	24.1
sgRNA knockout: sgATF4, 10 nM	101
sgRNA knockout: sgATF4, 100 nM	106
sgRNA knockout: sgATF4, 1000 nM	88.2
sgRNA knockout: sgATF4, 10000 nM	30.8
sgRNA knockout: sgATF6, 10 nM	105
sgRNA knockout: sgATF6, 100 nM	73
sgRNA knockout: sgATF6, 1000 nM	80.2
sgRNA knockout: sgATF6, 10000 nM	30.5
sgRNA knockout: sgATG7, 10 nM	92.1
sgRNA knockout: sgATG7, 100 nM	76.8
sgRNA knockout: sgATG7, 1000 nM	98.2
sgRNA knockout: sgATG7, 10000 nM	26.6
sgRNA knockout: sgERN1, 10 nM	116
sgRNA knockout: sgERN1, 100 nM	78.2
sgRNA knockout: sgERN1, 1000 nM	82.2
sgRNA knockout: sgERN1, 10000 nM	30.1
sgRNA knockout: sgHSF1, 10 nM	89.6
sgRNA knockout: sgHSF1, 100 nM	65.8
sgRNA knockout: sgHSF1, 1000 nM	83.8
sgRNA knockout: sgHSF1, 10000 nM	25
sgRNA knockout: sgHSF2, 10 nM	109
sgRNA knockout: sgHSF2, 100 nM	69.1
sgRNA knockout: sgHSF2, 1000 nM	77.6
sgRNA knockout: sgHSF2, 10000 nM	35.2
sgRNA knockout: sgKEAP1, 10 nM	98.3
sgRNA knockout: sgKEAP1, 100 nM	79.9
sgRNA knockout: sgKEAP1, 1000 nM	82.8
sgRNA knockout: sgKEAP1, 10000 nM	36.6
sgRNA knockout: sgNFE2L2, 10 nM	102
sgRNA knockout: sgNFE2L2, 100 nM	83.7
sgRNA knockout: sgNFE2L2, 1000 nM	77.2
sgRNA knockout: sgNFE2L2, 10000 nM	30.6
sgRNA knockout: sgSLC35F2, 10 nM	92.3
sgRNA knockout: sgSLC35F2, 100 nM	95.2
sgRNA knockout: sgSLC35F2, 1000 nM	94.9
sgRNA knockout: sgSLC35F2, 10000 nM	23
sgRNA knockout: sgXBP1, 10 nM	80.1
sgRNA knockout: sgXBP1, 100 nM	77.7
sgRNA knockout: sgXBP1, 1000 nM	79.9
sgRNA knockout: sgXBP1, 10000 nM	25.3
